Assay [1] deals with β-catenin (full-length human), expressed from pShuttle-IRES-hrGFP-2 (human) (UniProt P35222). The experiment in a line: co-IP; lysates of transfected PC12 cells 72 h after transfection; IP buffer 50 mmol/L Tris-HCl pH 8.0, 150 mmol/L NaCl, 1% NP-40; 500 μg lysate; anti-β-catenin or anti-Nurr1 antibody, protein-A-Sepharose; normal rabbit IgG as control; Western blot. (In general: Immunoblotting shows a protein as a band on a membrane.)

Protein sequences, listed by entry. Tags and fused reporters are not part of them.
UniProt P35222: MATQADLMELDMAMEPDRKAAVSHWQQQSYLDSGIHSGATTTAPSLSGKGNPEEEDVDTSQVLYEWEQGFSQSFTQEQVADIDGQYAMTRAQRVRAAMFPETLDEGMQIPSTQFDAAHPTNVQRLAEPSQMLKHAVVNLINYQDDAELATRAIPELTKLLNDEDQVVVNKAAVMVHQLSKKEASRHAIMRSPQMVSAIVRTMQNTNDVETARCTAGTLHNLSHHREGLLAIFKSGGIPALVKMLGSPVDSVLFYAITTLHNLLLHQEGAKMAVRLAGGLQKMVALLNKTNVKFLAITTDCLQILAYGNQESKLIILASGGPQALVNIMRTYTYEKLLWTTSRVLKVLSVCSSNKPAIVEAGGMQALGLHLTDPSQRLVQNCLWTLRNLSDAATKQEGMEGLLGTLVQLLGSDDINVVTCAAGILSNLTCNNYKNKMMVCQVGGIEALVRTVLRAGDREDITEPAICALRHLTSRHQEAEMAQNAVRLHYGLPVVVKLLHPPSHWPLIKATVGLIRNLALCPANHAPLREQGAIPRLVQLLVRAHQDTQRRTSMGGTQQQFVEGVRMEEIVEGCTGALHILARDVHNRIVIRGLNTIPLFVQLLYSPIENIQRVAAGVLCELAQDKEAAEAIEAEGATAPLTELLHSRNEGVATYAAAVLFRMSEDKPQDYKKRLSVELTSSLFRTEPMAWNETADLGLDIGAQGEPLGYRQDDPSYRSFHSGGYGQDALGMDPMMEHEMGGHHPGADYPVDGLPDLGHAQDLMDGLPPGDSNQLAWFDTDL
UniProt P43354: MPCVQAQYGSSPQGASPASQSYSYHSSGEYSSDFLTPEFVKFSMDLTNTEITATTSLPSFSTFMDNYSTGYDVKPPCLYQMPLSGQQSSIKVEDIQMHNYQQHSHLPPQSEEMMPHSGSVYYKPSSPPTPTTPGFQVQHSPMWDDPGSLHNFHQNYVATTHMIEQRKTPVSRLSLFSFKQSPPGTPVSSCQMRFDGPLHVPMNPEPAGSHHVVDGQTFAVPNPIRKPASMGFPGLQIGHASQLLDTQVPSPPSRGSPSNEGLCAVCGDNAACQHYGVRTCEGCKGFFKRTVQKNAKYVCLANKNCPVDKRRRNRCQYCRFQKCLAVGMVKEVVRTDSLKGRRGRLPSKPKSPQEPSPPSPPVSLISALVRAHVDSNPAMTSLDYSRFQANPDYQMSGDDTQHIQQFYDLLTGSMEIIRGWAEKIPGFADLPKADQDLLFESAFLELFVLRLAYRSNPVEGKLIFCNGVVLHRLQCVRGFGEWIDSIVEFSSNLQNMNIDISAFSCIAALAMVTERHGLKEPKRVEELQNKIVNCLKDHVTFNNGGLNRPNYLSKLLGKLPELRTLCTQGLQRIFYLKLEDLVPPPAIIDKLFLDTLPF

For assay [2] the target is unchanged. The experiment in a line: co-IP; lysates of transfected HEK-293T cells 72 h after transfection; IP buffer 50 mmol/L Tris-HCl pH 8.0, 150 mmol/L NaCl, 1% NP-40; 500 μg lysate; anti-β-catenin or anti-Nurr1 antibody, protein-A-Sepharose; normal rabbit IgG as control; Western blot.

Results are given in words; binding and its absence hold for the method and conditions named. Binding seen in cells or lysates may run through a third protein. Some entries that bind do so weakly or less than the wild type.

For the substance “Nurr1 (full-length human), expressed from pShuttle-IRES-hrGFP-2 (from UniProt P43354 1-598)”, the binding result in assay [1] and in assay [2] was “binds” in each case.

The record behind these values is publication PMC4821554.
